Results published in PubChem BioAssay AID540276 (National Center for Advancing Translational Sciences (NCATS), 2011).
About 5,400 (1.8%) of roughly 300,000 compounds were called active. This list was built around the results that the source calls inconclusive (neither active nor inactive); the mix of calls is not that of the screen. Calls follow the shape of the full dose curve; tested in HEK293 cells. Where the call is inconclusive, the potency comes from a doubtful curve fit.
% is scaled to controls: 0 for no effect and ±100 for the full control effect; potency is read from the fitted curve at half-maximal effect.

Test: qHTS for inhibitors of binding or entry into cells for Marburg Virus
Details: Marburg virus pseudotyped entry inhibition, cell reporter; activity change, negative = inhibition: at 37.8 µM (top of the series) unless noted
In the case of Cn1ccc(C(=O)NC(=S)N2CCSCC2)n1, the Potency is reported as inconclusive: 12.6 µM [activator, partial curve].
For COc1ccc(/C=N/Nc2nncc3ccccc23)cc1, the Potency was inconclusive: 35.5 µM [inhibitor, single point].
With COc1ccccc1CNC(=O)COC(=O)Cc1c[nH]c2ccccc12 the “activity change, negative = inhibition” value was inactive: 19.4%.
With O=C(Cn1nc(CNc2ccc(Br)cc2)[n+]2c1CCCCC2)c1ccc([N+](=O)[O-])cc1 the “activity change, negative = inhibition” value was inactive: -17.9%.
In the case of Cc1nn(C)c(C)c1CN(C)S(=O)(=O)c1ccc2ccccc2c1, the Potency is reported as inconclusive: 0.891 µM [inhibitor, full curve].
With Cc1ccc(NC(=O)N2CC3CCCN3c3ccccc32)cc1C (centres undefined) the Potency was inconclusive: 3.16 µM [inhibitor, full curve, poor fit].
In the case of CN(C)c1ccc(CN(Cc2ccco2)C(=O)COc2ccc(F)cc2)cc1, the Potency is reported as inconclusive: 35.5 µM [inhibitor, single point].
In the case of COc1ccc(C(=O)Nc2ccc(N3CCOCC3)cc2)cc1S(=O)(=O)N1CCOCC1, the “activity change, negative = inhibition” value is reported as inactive: 3.64%.
For Cc1ccc(S(=O)(=O)N(C)c2ccc(OCC(=O)NC3=NCCS3)cc2)cc1, the Potency was inconclusive: 3.98 µM [inhibitor, full curve, poor fit].
In the case of CSC(=S)NN=C(C)c1cccc(C)n1, the Potency is reported as active: 5.01 µM.
With CCCCC(=O)Nc1cccc(-c2cn3ccsc3n2)c1 the Potency was inconclusive: 35.5 µM [inhibitor, single point].
For O=C(COC(=O)c1ccccc1NS(=O)(=O)c1cccs1)NC1CCCCC1, the Potency was inconclusive: 1.41 µM [activator, single point].
In the case of Cc1ccc(S(=O)(=O)NCC(=O)N/N=C/c2ccc(Cl)cc2Cl)cc1, the “activity change, negative = inhibition” value is reported as inactive: -18.7%.
In the case of NC(=O)C1CC(=O)N(c2ccc(OCc3ccc(F)cc3)cc2)C1 (centres undefined), the Potency is reported as inconclusive: 1.78 µM [activator, partial curve, poor fit].
For COc1ccc(-n2c(SCC(=O)N3CCCC(C)C3)nnc2-c2cccnc2)cc1 (centres undefined), the Potency was inconclusive: 35.5 µM [inhibitor, partial curve, poor fit].
In the case of Cc1csc2nc(CNS(=O)(=O)c3cccnc3)cn12, the Potency is reported as inconclusive: 25.9 µM [activator, partial curve, poor fit].
With COc1ccc2nc(N3CCCCC3)c(/C=C3\SC(=S)NC3=O)cc2c1 the Potency was inconclusive: 4.47 µM [inhibitor, single point].
In the case of Cc1ccc(C2C(C(=O)c3sc(C)nc3C)=C(O)C(=O)N2CCN2CCOCC2)o1 (centres undefined), the “activity change, negative = inhibition” value is reported as inactive: 17.8%.
In the case of Cc1cccc(NC(=S)N(CCN(C)C)Cc2cc3cc(C)cc(C)c3[nH]c2=O)c1, the Potency is reported as inconclusive: 35.5 µM [inhibitor, single point].
In the case of COCC(=O)OCC(=O)Nc1ccccc1-c1ccccc1, the “activity change, negative = inhibition” value is reported as inactive: 0.358% [at 14.2 µM].
With O=C1NC(=O)c2cc(Br)cc3cccc1c23 the “activity change, negative = inhibition” value was inactive: -1.15% [at 46.1 µM].
With COc1ccc(CN(C(=O)c2ccccc2F)C2CCS(=O)(=O)C2)cc1 (centres undefined) the “activity change, negative = inhibition” value was inactive: 7.79% [at 46.1 µM].
With COc1ccc2[nH]cc(CCNC(=O)Nc3ccccc3)c2c1 the Potency was inconclusive: 11.2 µM [inhibitor, partial curve, poor fit].
In the case of COc1cccc(NC(=O)NCCCN2CCN(c3ccc(F)cc3)CC2)c1, the Potency is reported as inconclusive: 35.5 µM [inhibitor, single point].
With COc1ccc(C(O)(c2ccccc2OC)C(CN2CCOCC2)c2ccccc2)cc1 (centres undefined) the Potency was active: 11.2 µM.
With Nc1ccc(Br)c2cccnc12 the Potency was inconclusive: 0.501 µM [inhibitor, partial curve, poor fit].
In the case of COc1ccc(-c2ccc(CN3C(C(C)C)C(=O)N(Cc4cn(CCC5OCCCO5)nn4)CCS3(=O)=O)cc2)cn1 (centres undefined), the Potency is reported as inconclusive: 15.8 µM [activator, partial curve, poor fit].
For O=C(N/N=C/c1ccc(N2CCCCC2)o1)c1ccccc1, the Potency was inconclusive: 31.6 µM [inhibitor, partial curve, poor fit].
With Cc1onc(NC(=O)c2ccc([N+](=O)[O-])o2)c1Br the Potency was inconclusive: 6.31 µM [inhibitor, single point].
For CCCSc1ncc(Cl)c(C(=O)Nc2ccc(S(=O)(=O)N3CCCC(C)C3)cc2)n1 (centres undefined), the “activity change, negative = inhibition” value was inactive: -12.3% [at 46.1 µM].
In the case of CCn1c(/C=C/N(C(C)=O)c2ccccc2)[n+](CC)c2ccc(Cl)cc21, the “activity change, negative = inhibition” value is reported as inactive: -14.3%.
For Cc1cccc(N2CCN(C(=O)c3ccc4nc(N5CCC(C)CC5)sc4c3)CC2)c1C, the Potency was inconclusive: 14.1 µM [activator, partial curve].
In the case of O=C(CSc1nc(Nc2ccccc2)nc(N2CCOCC2)n1)Nc1ccc([N+](=O)[O-])cc1, the Potency is reported as inconclusive: 11.6 µM [inhibitor, partial curve, poor fit].
With COc1cc(/C=N/NC(=O)c2sc(N)c(C#N)c2C)ccc1O the Potency was active: 4.47 µM.
With O=C(/C=C/c1c(Cl)cccc1Cl)N1CCN(c2ncccn2)CC1 the “activity change, negative = inhibition” value was inactive: 0.845% [at 46.1 µM].
With C=CCn1c(-c2ccc([N+](=O)[O-])cc2)n[nH]c1=S the “activity change, negative = inhibition” value was inactive: 3.57%.
For CCn1c(SCc2nc3ccccc3c(=O)[nH]2)nc2ccccc2c1=O, the Potency was inconclusive: 35.5 µM [inhibitor, single point].
For Cc1c(C(=O)N(Cc2ccc(N(C)C)cc2)CC2CCCO2)oc2ccccc12 (centres undefined), the Potency was inconclusive: 7.08 µM [inhibitor, partial curve, poor fit].
For COc1ccc(C(=O)NCCc2nnc3ccc(SCC(=O)Nc4ccccc4)nn23)cc1, the “activity change, negative = inhibition” value was inactive: 13.8%.
For COc1cc(C(=O)Oc2ccccc2OC(=O)c2cc(OC)c(OC)c(OC)c2)cc(OC)c1OC, the Potency was inconclusive: 6.31 µM [inhibitor, partial curve, poor fit].
With CCCCCC(=O)N1C[C@@H](n2cc(-c3ccc(F)cc3)nn2)[C@H](O)C[C@H]1c1ccccc1 the Potency was inconclusive: 0.0141 µM [inhibitor, full curve, poor fit].
In the case of CC(C)(C)c1ccc(S(=O)(=O)NCC(=O)Nc2sc3c(c2C(N)=O)CCCC3)cc1, the Potency is reported as inconclusive: 35.5 µM [inhibitor, single point].
In the case of CCN1CCN(S(=O)(=O)c2ccc(Cl)c(C(=O)N(C)Cc3cccc(Cl)c3Cl)c2)CC1, the Potency is reported as inconclusive: 14.1 µM [inhibitor, single point].
In the case of CCN(CC)S(=O)(=O)c1ccc(NC(=O)CCNC(=O)c2ccccc2)cc1, the Potency is reported as inconclusive: 31.6 µM [inhibitor, single point].
In the case of COc1ccc(NC(=O)CCS(=O)(=O)c2cccc3nonc23)cc1, the “activity change, negative = inhibition” value is reported as inactive: 0.768% [at 46.1 µM].
For Cc1ccc(S(=O)(=O)N2CCN(C(=O)N3CCOCC3)C2c2ccc(N(C)C)cc2)cc1 (centres undefined), the Potency was “inactive”.
For CC(C)N(C(=O)COC(=O)c1cccnc1Cl)c1ccccc1, the Potency was inconclusive: 0.355 µM [activator, single point].
With CC(C)OCC(O)CCc1n[nH]c(=S)n1-c1ccccc1 (centres undefined) the Potency was inconclusive: 35.5 µM [activator, single point].
In the case of CN(CCc1cnn(C)c1)C(=O)CCc1nnc(CCCc2ccccc2)o1, the Potency is reported as inconclusive: 35.5 µM [activator, single point].
In the case of COc1ccc(CCNC(=S)Nc2cccc3ccccc23)cc1, the “activity change, negative = inhibition” value is reported as inactive: -16.6%.
For CN(Cc1nc2ccccc2c(=O)[nH]1)C(=O)C1CC(=O)N(c2cccc3ccccc23)C1 (centres undefined), the Potency was inconclusive: 14.1 µM [activator, single point].
With NC(=O)c1ccsc1NC(=O)COC(=O)c1cc(=O)[nH]c2ccccc12 the “activity change, negative = inhibition” value was inactive: -7.42%.
For c1ccc(Nc2nc(N3CCOCC3)c3ccccc3n2)cc1, the Potency was active: 12.6 µM.
For O=C(O)CCC(=O)Nc1ccc(N2CCCCCC2)cc1, the Potency was inconclusive: 6.31 µM [inhibitor, single point].
In the case of CCOC(=O)Cc1cc(C(=O)Nc2ccc(Br)cc2)sc1-c1ccc(C)cc1, the “activity change, negative = inhibition” value is reported as inactive: -18.9% [at 46.1 µM].
For CC1=NN(c2ccccc2)C(=O)C1C(=O)c1ccc([N+](=O)[O-])cc1 (centres undefined), the Potency was inconclusive: 11.6 µM [inhibitor, partial curve].
With Cc1cccc(C)c1NC(=O)Cn1c(=O)n(Cc2ccc(C(=O)NCc3ccco3)cc2)c(=O)c2sccc21 the “activity change, negative = inhibition” value was inactive: 2.66% [at 46.1 µM].
With C/C(=N/O)c1cccc(N2Cc3ccccc3C2)c1 the Potency was inconclusive: 5.62 µM [inhibitor, single point].
With CCc1ccc(CNc2ncc(-c3cccc(OC)c3)n2C)cc1 the Potency was inconclusive: 35.5 µM [inhibitor, single point].
With COc1cccc(CN(C)CC(=O)Nc2ccccc2N2CCOCC2)c1OC the Potency was inconclusive: 3.98 µM [inhibitor, partial curve].
With Cc1ccc(S(=O)(=O)/N=C(/Nc2cccc(O)c2)c2ccccc2)cc1 the Potency was inconclusive: 35.5 µM [inhibitor, single point].
For S=C(NCCc1ccccc1)Nc1ccc(Nc2ccccc2)cc1, the Potency was inconclusive: 17.8 µM [inhibitor, single point].
For Cc1ccccc1C(=O)c1c[nH]c(C(=O)NCCCn2ccnc2)c1, the “activity change, negative = inhibition” value was inactive: -2.22%.
For CC(C)c1ccc(N2C(=O)NC(=O)/C(=C\C=C\c3ccco3)C2=O)cc1, the Potency was inconclusive: 14.1 µM [inhibitor, partial curve, poor fit].
In the case of COc1ccc(-c2noc(CCC(=O)NC3CCN(Cc4ccccc4)CC3)n2)cc1, the Potency is reported as inconclusive: 25.1 µM [inhibitor, partial curve, poor fit].
With Cc1ccn2c(NC(=O)c3cccc(Cl)c3)c(-c3ccccc3)nc2c1 the Potency was inconclusive: 3.55 µM [activator, single point].
For CCCn1c(=O)c2ccccc2n2c(SCc3nc4ccccc4s3)nnc12, the “activity change, negative = inhibition” value was inactive: 3.77%.
For CC1CCCC(NC(=O)/C=C/c2c(F)cccc2Cl)C1C (centres undefined), the “activity change, negative = inhibition” value was inactive: -1.28% [at 46.1 µM].
In the case of O=C(NCc1ccccn1)C(=O)Nc1ccccc1, the Potency is reported as inconclusive: 35.5 µM [activator, single point].
